# No constants are given. Whether binding was seen depends on the method and setting. In cells and extracts the contact can be indirect. Here binding means that the protein was enriched with, or labelled near, the bait; the list need not be complete. Where a sequence is shown, tags or fusion partners need not be part of it.
# T1: USP8 (also called UBPy) (human) (UniProt P40818)
# T1 sequence (looked up): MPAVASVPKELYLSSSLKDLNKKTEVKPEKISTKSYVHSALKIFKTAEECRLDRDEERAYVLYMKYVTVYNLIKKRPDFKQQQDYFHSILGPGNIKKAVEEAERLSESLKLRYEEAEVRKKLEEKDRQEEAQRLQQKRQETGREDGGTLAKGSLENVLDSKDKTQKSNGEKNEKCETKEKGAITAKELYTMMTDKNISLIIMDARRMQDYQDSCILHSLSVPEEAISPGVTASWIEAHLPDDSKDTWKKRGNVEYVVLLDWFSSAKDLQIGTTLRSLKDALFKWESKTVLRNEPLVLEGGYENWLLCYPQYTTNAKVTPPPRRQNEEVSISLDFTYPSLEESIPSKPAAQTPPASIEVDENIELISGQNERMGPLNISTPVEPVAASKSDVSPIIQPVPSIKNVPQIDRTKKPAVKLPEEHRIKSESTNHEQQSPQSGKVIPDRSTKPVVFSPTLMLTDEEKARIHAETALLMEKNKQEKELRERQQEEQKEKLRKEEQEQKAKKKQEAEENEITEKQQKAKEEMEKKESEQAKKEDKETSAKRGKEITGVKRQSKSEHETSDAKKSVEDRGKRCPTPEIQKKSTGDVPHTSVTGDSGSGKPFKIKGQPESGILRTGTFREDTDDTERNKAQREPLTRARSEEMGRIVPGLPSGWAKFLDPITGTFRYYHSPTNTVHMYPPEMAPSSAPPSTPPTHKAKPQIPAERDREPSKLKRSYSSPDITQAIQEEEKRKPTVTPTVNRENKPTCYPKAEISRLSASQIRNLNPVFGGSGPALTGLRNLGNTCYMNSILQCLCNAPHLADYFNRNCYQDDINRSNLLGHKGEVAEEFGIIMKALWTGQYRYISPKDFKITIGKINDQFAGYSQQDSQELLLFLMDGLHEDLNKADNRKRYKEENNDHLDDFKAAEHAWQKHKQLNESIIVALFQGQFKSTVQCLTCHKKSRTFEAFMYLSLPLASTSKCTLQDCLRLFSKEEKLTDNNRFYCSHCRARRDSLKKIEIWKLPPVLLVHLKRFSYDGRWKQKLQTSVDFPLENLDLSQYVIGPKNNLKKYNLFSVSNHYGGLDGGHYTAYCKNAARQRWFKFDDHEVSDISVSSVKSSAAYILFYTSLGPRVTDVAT
# B1: TMEM79-Myc-Flag (protein, not shown: small tags and cut ends)
# chain: MTEPETLALLDMKEPETPEKSPPQALVLQSEEEGGTESPGTESLRVGSSVGSPIVREGPEDGPDSTISEAATLPWGTDPHPSAPLPDPPGWRDIEPEPLESEAPTKSEEPFKEDANLLPEKTVRAFVPIDLQCIERKPQEERILHRDAGPGELRNFLPARLSHPEPPERKWAEAVVRPPGRSCGGCGSCGGREALRAVASVVAALIFFPCLLYGAYAFLPFDAPRLPTMSSRLVYTLRCGVFATFPIVLGLLVYGLSLLCFSALRPFGEPRREVEIHRQYVAQSVQLFILYFFNLAVLSTYLPQDTLKLLPLLTGLFAISRLIYWLTFAVGRSFRGFGYGLTFLPLLAMLVWNLYYMFVVEPERMLTASESRLDYPDHARSVSDYRPRSWG
# Tests used:
# [1] = molecular target: T1, USP8 (also called UBPy) (human); assay: tandem affinity purification and mass spectrometry (FIG. 11A)
# [2] = molecular target: T1, USP8 (also called UBPy) (human); assay: tandem affinity purification (Flag then Myc) and mass spectrometry (FIG. 11A)
binder,measurement,setting,value
B1,binding,[1],binds
same,binding,[2],binds
